# Test results from the supplement of paper PMC8728848.
# Some of the results follow.
# B1: AT5G17240(42) (Arabidopsis thaliana), Q6NQJ8 (protein)
# chain: MDLEHQTMETFLRWAAEIGISDSIDSSRFRDSCLGHSLSVSDFPDAGGRGLGAARELKKGELVLKVPRKALMTTESIIAKDLKLSDAVNLHNSLSSTQILSVCLLYEMSKEKKSFWYPYLFHIPRDYDLLATFGNFEKQALQVEDAVWATEKATAKCQSEWKEAGSLMKELELKPKFRSFQAWLWASATISSRTLHVPWDSAGCLCPVGDLFNYDAPGDYSNTPQGPESANNVEEAGLVVETHSERLTDGGFEEDVNAYCLYARRNYQLGEQVLLCYGTYTNLELLEHYGFMLEENSNDKVFIPLETSLFSLASSWPKDSLYIHQDGKLSFALISTLRLWLIPQSQRDKSVMRLVYAGSQISVKNEILVMKWMSEKCGSVLRDLPTSVTEDTVLLHNIDKLQDPELRLEQKETEAFGSEVRAFLDANCLWDVTVLSGKPIEFSRKTSRMLSKWRWSVQWRLSYKRTLADCISYCNEKMNNLLGTQDRLRDL
# Columns and labels:
# Assay in all cases: glycan array binding signal (z-score within array); higher = stronger binding
# Settings in all cases: glycan notation: IUPAC condensed, linker removed
# [1] = target: GlcNAc(b1-2)[GlcNAc(b1-6)]Man(a1-6)[GlcNAc(b1-2)Man(a1-3)]Man(b1-4)GlcNAc(b1-4)[Fuc(a1-6)]GlcNAc
# Outline: (§1)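 The binding signal is a Z-score computed within each array and averaged over linkers. Arrays of the same protein sequence at different concentrations or buffers were also averaged together. Data originate from 3228 arrays in the Consortium for Functional Glycomics database, kept only where the protein sequence was available.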
# [2] = target: GlcNAc(b1-2)[GlcNAc(b1-6)]Man(a1-6)[GlcNAc(b1-4)][GlcNAc(b1-2)Man(a1-3)]Man(b1-4)GlcNAc(b1-4)GlcNAc
# Outline: as §1
# [3] = target: GlcNAc(b1-3)Fuc
# Outline: as §1
# [4] = target: GlcNAc(b1-3)Gal
# Outline: as §1
# [5] = target: GlcNAc(b1-3)Gal(b1-3)GalNAc
# Outline: as §1
# [6] = target: GlcNAc(b1-3)Gal(b1-4)Glc
# Outline: as §1
# [7] = target: GlcNAc(b1-3)Gal(b1-4)GlcNAc
# Outline: as §1
# [8] = target: GlcNAc(b1-3)Gal(b1-4)GlcNAc(b1-2)Man(a1-3)[GlcNAc(b1-3)Gal(b1-4)GlcNAc(b1-2)Man(a1-6)]Man(b1-4)GlcNAc(b1-4)GlcNAc
# Outline: as §1
# [9] = target: GlcNAc(b1-3)Gal(b1-4)GlcNAc(b1-2)Man(a1-3)[GlcNAc(b1-3)Gal(b1-4)GlcNAc(b1-2)Man(a1-6)]Man(b1-4)GlcNAc(b1-4)[Fuc(a1-6)]GlcNAc
# Outline: as §1
# [10] = target: GlcNAc(b1-3)Gal(b1-4)GlcNAc(b1-2)[GlcNAc(b1-3)Gal(b1-4)GlcNAc(b1-6)]Man(a1-6)[GlcNAc(b1-3)Gal(b1-4)GlcNAc(b1-2)Man(a1-3)]Man(b1-4)GlcNAc(b1-4)GlcNAc
# Outline: as §1
# [11] = target: GlcNAc(b1-3)Gal(b1-4)GlcNAc(b1-3)Gal(b1-4)GlcNAc
# Outline: as §1
# [12] = target: GlcNAc(b1-3)Gal(b1-4)GlcNAc(b1-3)Gal(b1-4)GlcNAc(b1-2)Man(a1-3)[GlcNAc(b1-3)Gal(b1-4)GlcNAc(b1-3)Gal(b1-4)GlcNAc(b1-2)Man(a1-6)]Man(b1-4)GlcNAc(b1-4)GlcNAc
# Outline: as §1
# [13] = target: GlcNAc(b1-3)Gal(b1-4)GlcNAc(b1-3)Gal(b1-4)GlcNAc(b1-2)Man(a1-3)[GlcNAc(b1-3)Gal(b1-4)GlcNAc(b1-3)Gal(b1-4)GlcNAc(b1-2)Man(a1-6)]Man(b1-4)GlcNAc(b1-4)[Fuc(a1-6)]GlcNAc
# Outline: as §1
# [14] = target: GlcNAc(b1-3)Gal(b1-4)GlcNAc(b1-3)Gal(b1-4)GlcNAc(b1-2)[GlcNAc(b1-3)Gal(b1-4)GlcNAc(b1-3)Gal(b1-4)GlcNAc(b1-6)]Man(a1-6)[GlcNAc(b1-3)Gal(b1-4)GlcNAc(b1-3)Gal(b1-4)GlcNAc(b1-2)Man(a1-3)]Man(b1-4)GlcNAc(b1-4)[Fuc(a1-6)]GlcNAc
# Outline: as §1
# [15] = target: GlcNAc(b1-3)Gal(b1-4)GlcNAc(b1-3)Gal(b1-4)GlcNAc(b1-3)Gal(b1-4)GlcNAc(b1-2)Man(a1-3)[GlcNAc(b1-3)Gal(b1-4)GlcNAc(b1-3)Gal(b1-4)GlcNAc(b1-3)Gal(b1-4)GlcNAc(b1-2)Man(a1-6)]Man(b1-4)GlcNAc(b1-4)GlcNAc
# Outline: as §1
# [16] = target: GlcNAc(b1-3)Gal(b1-4)GlcNAc(b1-3)Gal(b1-4)GlcNAc(b1-3)Gal(b1-4)GlcNAc(b1-2)Man(a1-3)[GlcNAc(b1-3)Gal(b1-4)GlcNAc(b1-3)Gal(b1-4)GlcNAc(b1-3)Gal(b1-4)GlcNAc(b1-2)Man(a1-6)]Man(b1-4)GlcNAc(b1-4)[Fuc(a1-6)]GlcNAc
# Outline: as §1
# [17] = target: GlcNAc(b1-3)Gal(b1-4)GlcNAc(b1-3)Gal(b1-4)GlcNAc(b1-3)Gal(b1-4)GlcNAc(b1-2)[GlcNAc(b1-3)Gal(b1-4)GlcNAc(b1-3)Gal(b1-4)GlcNAc(b1-3)Gal(b1-4)GlcNAc(b1-6)]Man(a1-6)[GlcNAc(b1-3)Gal(b1-4)GlcNAc(b1-3)Gal(b1-4)GlcNAc(b1-3)Gal(b1-4)GlcNAc(b1-2)Man(a1-3)]Man(b1-4)GlcNAc(b1-4)[Fuc(a1-6)]GlcNAc
# Outline: as §1
# [18] = target: GlcNAc(b1-3)Gal(b1-4)GlcNAc(b1-3)Gal(b1-4)GlcNAc(b1-3)Gal(b1-4)GlcNAc(b1-3)Gal(b1-4)GlcNAc(b1-2)Man(a1-3)[GlcNAc(b1-3)Gal(b1-4)GlcNAc(b1-3)Gal(b1-4)GlcNAc(b1-3)Gal(b1-4)GlcNAc(b1-3)Gal(b1-4)GlcNAc(b1-2)Man(a1-6)]Man(b1-4)GlcNAc(b1-4)GlcNAc
# Outline: as §1
# [19] = target: GlcNAc(b1-3)Gal(b1-4)GlcNAc(b1-3)Gal(b1-4)GlcNAc(b1-3)Gal(b1-4)GlcNAc(b1-3)Gal(b1-4)GlcNAc(b1-2)Man(a1-3)[GlcNAc(b1-3)Gal(b1-4)GlcNAc(b1-3)Gal(b1-4)GlcNAc(b1-3)Gal(b1-4)GlcNAc(b1-3)Gal(b1-4)GlcNAc(b1-2)Man(a1-6)]Man(b1-4)GlcNAc(b1-4)[Fuc(a1-6)]GlcNAc
# Outline: as §1
binder,measurement,setting,value
B1,glycan array binding signal (z-score),[1],0.057
same,glycan array binding signal (z-score),[2],-0.567
same,glycan array binding signal (z-score),[3],-0.511
same,glycan array binding signal (z-score),[4],-0.21
same,glycan array binding signal (z-score),[5],-0.178
same,glycan array binding signal (z-score),[6],-0.232
same,glycan array binding signal (z-score),[7],0.129
same,glycan array binding signal (z-score),[8],-0.343
same,glycan array binding signal (z-score),[9],-0.256
same,glycan array binding signal (z-score),[10],2.56
same,glycan array binding signal (z-score),[11],-0.234
same,glycan array binding signal (z-score),[12],0.442
same,glycan array binding signal (z-score),[13],-0.319
same,glycan array binding signal (z-score),[14],1.12
same,glycan array binding signal (z-score),[15],0.407
same,glycan array binding signal (z-score),[16],0.113
same,glycan array binding signal (z-score),[17],0.564
same,glycan array binding signal (z-score),[18],0.094
same,glycan array binding signal (z-score),[19],0.747

# Exported bar-delimited: entries from further up
binder | measurement | setting | value
B1 | glycan array binding signal (z-score) | [14] | 1.12
same | glycan array binding signal (z-score) | [15] | 0.407
